Patent US20140051701A1, “METHODS OF TREATING A DISEASE OR CONDITION OF THE CENTRAL NERVOUS SYSTEM” (Bionomics Limited, priority 2011, published 2014)
“Also recorded” adds a separate entry of the source. At least one structure is not confirmed: it was looked up by name or label, or the drawing left a doubt.

Tested on: rat primary cortical neurons
Experiment: Neurite outgrowth assay in cortical neuron culture
Format: cell-based
Protocol: Female rats of 17 days gestation were killed by cervical dislocation and the foetuses were removed from the uterus. Their brains were placed in ice-cold medium of Leibovitz (L15, Gibco, Fisher bioblock, France). Cortex were dissected and meninges were carefully removed. The cortical neurons were dissociated by trypsinization for 30 min at 37° C. (trypsin-EDTA Gibco) in presence of 0.1 mg/ml DNAse I (Roche, France). The reaction was stopped by addition of in medium of Eagle modified by Dulbecco (DMEM; Gibco) with 10% of fetal bovine serum (FBS; Gibco). The suspension was triturated with a 10-ml pipette and using a needle syringe 21G and centrifuged at 350×g for 10 min at room temperature. The pellet of dissociated cells was resuspended in a medium consisting of Neurobasal (Gibco) supplemented with 2% B27 supplement (Gibco), 0.5 mM L-Glutamine (Gibco), an antibiotic-antimicotic mixture. Viable cells were counted in a Neubauer cytometer using the trypan blue exclusion test (Sigma). Cells were seeded on the basis of 30000 cells per Petri dish (ø35 mm, Nunc) precoated with poly-L-lysine. […]
A global analysis of the data was performed using a one way analysis of variance (ANOVA), followed by Fisher's Protected Least Significant Difference when applicable. […] All results were expressed as mean±sem. […]

Question: What does the source list for `CCCCCCCCCCCCCCCCCCOCC(COP(=O)([O-])OCC[N+](C)(C)C)OC` (centres unmarked) [Edelfosine]?
Answer: block of Compound 1-induced enhancement of neurite outgrowth by PLC inhibitor (inhibitor in combination with Compound 1): blocked; also recorded: significant and dose-dependant reduction; effect on neurite outgrowth, substance alone (primary cortical neurons): reduced neurite outgrowth
